Data on seven sequences can be found in US5840832.

For part of these data: At least one result comes from cells or an extract, where the contact may be indirect. Where a protein sequence is shown, tags need not be part of it. For part of these data: The exact form of at least one protein or probe is not confirmed. For part of these data: A negative result means that nothing was seen under these conditions.

Series [1] deals with T1, NF-X1 (plaque filter-bound fusion) (Homo sapiens) (UniProt Q12986).
T1 sequence (limits assumed): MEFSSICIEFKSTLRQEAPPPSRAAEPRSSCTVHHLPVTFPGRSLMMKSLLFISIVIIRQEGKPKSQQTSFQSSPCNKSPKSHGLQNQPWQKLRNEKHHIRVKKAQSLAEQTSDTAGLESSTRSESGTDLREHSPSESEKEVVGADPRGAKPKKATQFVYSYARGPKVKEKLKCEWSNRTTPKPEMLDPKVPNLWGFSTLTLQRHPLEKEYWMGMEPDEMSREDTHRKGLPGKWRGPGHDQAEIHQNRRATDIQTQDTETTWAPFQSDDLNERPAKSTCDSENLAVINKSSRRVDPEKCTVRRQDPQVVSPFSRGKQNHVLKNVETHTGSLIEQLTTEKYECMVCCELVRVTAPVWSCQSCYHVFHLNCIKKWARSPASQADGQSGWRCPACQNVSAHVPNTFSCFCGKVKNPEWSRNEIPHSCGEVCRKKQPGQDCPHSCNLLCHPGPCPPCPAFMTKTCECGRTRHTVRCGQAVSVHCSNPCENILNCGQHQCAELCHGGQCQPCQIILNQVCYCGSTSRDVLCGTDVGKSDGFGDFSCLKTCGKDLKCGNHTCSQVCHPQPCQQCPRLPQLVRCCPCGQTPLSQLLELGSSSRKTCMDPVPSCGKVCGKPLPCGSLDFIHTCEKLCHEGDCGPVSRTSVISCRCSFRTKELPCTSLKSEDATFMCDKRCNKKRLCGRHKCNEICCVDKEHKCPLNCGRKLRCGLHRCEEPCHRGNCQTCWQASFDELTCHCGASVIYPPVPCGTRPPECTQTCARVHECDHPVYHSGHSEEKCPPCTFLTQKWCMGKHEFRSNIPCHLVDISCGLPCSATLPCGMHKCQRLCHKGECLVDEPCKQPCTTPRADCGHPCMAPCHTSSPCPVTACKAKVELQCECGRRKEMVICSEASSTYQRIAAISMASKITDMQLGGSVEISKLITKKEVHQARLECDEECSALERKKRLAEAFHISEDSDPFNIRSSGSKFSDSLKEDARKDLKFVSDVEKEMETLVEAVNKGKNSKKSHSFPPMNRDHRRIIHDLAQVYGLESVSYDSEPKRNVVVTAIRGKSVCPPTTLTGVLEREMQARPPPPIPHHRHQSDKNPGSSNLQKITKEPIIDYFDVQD
In words: binding assay. To be noted: protein in a lysate after overexpression, protein details: beta-galactosidase fusion, lambda gt11 plaque lift.

Series [2] addresses T2, NF-X1 (Homo sapiens) (UniProt Q12986).
T2 sequence (limits assumed): T1 sequence (limits assumed)
In words: competition with a labelled probe. To be noted: EMSA, 100-fold excess cold competitor has no effect; purified recombinant protein. A general note: A gel shift assay detects complexes by their altered migration in electrophoresis.

For series [3], the target named is T3, NF-X1 truncations D and E (cysteine-rich region) (Homo sapiens) (UniProt Q12986).
T3 sequence: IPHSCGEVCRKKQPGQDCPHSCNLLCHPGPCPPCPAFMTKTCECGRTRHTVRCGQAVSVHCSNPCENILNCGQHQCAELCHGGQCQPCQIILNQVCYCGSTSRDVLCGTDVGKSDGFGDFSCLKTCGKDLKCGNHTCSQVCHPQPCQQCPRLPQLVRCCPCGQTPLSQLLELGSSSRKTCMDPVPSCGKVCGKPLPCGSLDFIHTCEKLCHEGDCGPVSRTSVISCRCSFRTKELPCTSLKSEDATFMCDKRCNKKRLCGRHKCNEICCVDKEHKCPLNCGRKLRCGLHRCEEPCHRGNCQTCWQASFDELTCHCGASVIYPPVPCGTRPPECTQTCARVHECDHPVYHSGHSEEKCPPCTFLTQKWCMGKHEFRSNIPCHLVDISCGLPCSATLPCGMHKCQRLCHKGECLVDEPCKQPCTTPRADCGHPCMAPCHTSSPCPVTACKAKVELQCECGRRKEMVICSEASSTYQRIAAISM
In words: binding assay. To be noted: plaque filter binding; 30 uM ZnSO4, 40 mM KCl, 4 C; other truncations lacking parts of the region do not bind; protein in a lysate after overexpression; label: 32P.

Series [4] concerns the target T2, NF-X1 (Homo sapiens). In words: EMSA. To be noted: 13 mM Tris pH 7.9, 60 mM KCl, 12.5 mM NaCl, 12% glycerol, poly dIdC, room temperature; purified recombinant protein; label: 32P.
[5] abbreviates: plaque filter lift screening with multimerized probe, label: 32P, concatenated.

Consider “AAAATCTGCCCAGAGACAGATGAGGTCCTT (double strand) [HLA-DQB X box]”, for which the binding result in series [1] (setting [5]) is listed as “binds”.
As for “AAATATTTTTCTGATTGGCCAAAGAGT (double strand) [HLA-DRA Y box]”, in the series with NF-X1 (Homo sapiens) [2], the binding result was “no binding”.
Turning to “ACTTTCTGCCTAGTGAGCAATGACTCATAC (double strand) [HLA-DPB X box]”, the binding result in series [1] (setting [5]) was “binds”.
Consider “ATTCGATCGGGGCGGGGCGAGC (double strand) [SP1 motif]”, for which, in the series with NF-X1 (Homo sapiens) [2], the binding result is reported as “no binding”.
On to “CCCTTCCCCTAGCAACAGATG (double strand) [HLA-DRA X1 box]”, for which the binding result (in series [3]; with NF-X1 (Homo sapiens) [4]) was “binds” throughout.
As for “GTGGGAAATTCCGTGGGAAATTCCG (double strand) [PRDII element of interferon-beta gene]”, the binding result with NF-X1 (Homo sapiens) [2] is “no binding”.
Take “TGTGTCCTGGACCCTTTGCAAGA (double strand) [HLA-DRA S box]”: the binding result (in series [1] (plaque filter lift screening); with NF-X1 (Homo sapiens) [2]) was “no binding” each time.
